Test results as given in PubChem BioAssay AID493014 (National Center for Advancing Translational Sciences (NCATS), 2011).
The other results are listed elsewhere or left out. Shown are side measurements of this screen, not its main read-out; they come without a call. Compounds called inactive in the main read-out are mostly missing here. Words in brackets tell the shape of the fitted curve; partial curves, single points and poor fits give uncertain potencies.

Assay: qHTS Assay to Find Inhibitors of Chronic Active B-Cell Receptor Signaling
Conditions: ABC-DLBCL IkBa-CBG/CBR reporter, luminescence ratio (green luciferase fused to IkBa over red control in TMD8 lymphoma cells), 4 h
Summary of the method: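 TMD8 ABC-DLBCL cells carrying doxycycline-inducible green luciferase fused to IkappaBalpha plus unfused red luciferase were exposed to compounds (up to 46 uM) for 4 hrs at 37C. Activity came from the overlap-corrected green/red luminescence ratio.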

[1] = measured here: CBR red luminescence, cell number
[2] = measured here: IkBa-CBG green luminescence

In the case of `C/C(=N\Nc1ccc(C(=O)O)cc1)c1ccc2c(c1)Nc1ccccc1S2`, the AC50 [1] is reported as 2.82 µM [falling, full curve] and the AC50 [2] is reported as 0.316 µM [rising, full curve, poor fit].
In the case of `COc1cc(C(=O)Nc2ccc(O)cc2)ccc1OC(C)=O`, the AC50 [1] is reported as 2.31 µM [falling, partial curve, poor fit].
With `CC(=O)c1ccccc1NC(=O)c1ccc2c(c1)NC(=O)C(C)S2` (configuration not stated) the AC50 [1] was 11.6 µM [falling, partial curve, poor fit].
In the case of `COc1cccc(-c2c(C(=O)N/N=C(\C)c3cccs3)nnn2-c2nonc2N)c1`, the AC50 [1] is reported as 15.8 µM [falling, single point].
With `Cc1cc2ncn(CCCCOc3ccccc3)c2cc1C` the AC50 [1] was 23.1 µM [rising, partial curve, poor fit].
For `CC1CC(C)CN(S(=O)(=O)c2ccc(C(=O)NCc3ccco3)cc2)C1` (configuration not stated), the AC50 [1] was 35.5 µM [rising, partial curve, poor fit].
For `O=C(NNC(=O)c1ccccc1Br)c1ccc(SCC2CCCO2)c([N+](=O)[O-])c1` (configuration not stated), the AC50 [1] was 3.55 µM [falling, partial curve, poor fit].
With `CC1CCc2sc3ncn4nc(C(=O)NCc5ccco5)nc4c3c2C1` (configuration not stated) the AC50 [1] was 6.51 µM [rising, single point].
With `O=C1CCCC(O)=C1N=Nc1cccc(C(=O)O)c1` the AC50 [1] was 4.47 µM [falling, full curve].
For `Cc1cccc(NC(=O)c2ccc(C(=O)c3ccccc3)o2)c1`, the AC50 [1] was 25.1 µM [falling, single point].
With `NC(=O)c1ccc(N=C2C(=O)Nc3ccc([N+](=O)[O-])cc32)cc1` the AC50 [1] was 22.4 µM [rising, single point] and the AC50 [2] was 25.1 µM [falling, single point].
In the case of `COc1cc(/C=N/N=C2/NC(=O)C(Cc3ccccc3)S2)ccc1O` (configuration not stated), the AC50 [1] is reported as 10 µM [falling, partial curve, poor fit] and the AC50 [2] is reported as 11.2 µM [falling, single point].
With `CCN(CC)CCSc1nc2ccc(OC)cc2[nH]1` the AC50 [1] was 0.891 µM [rising, full curve, poor fit].
In the case of `NS(=O)(=O)c1ccc(NC(=O)CSc2nc3ccccc3c(=O)n2Cc2ccncc2)cc1`, the AC50 [1] is reported as 18.4 µM [rising, partial curve].
In the case of `O=C(N/N=C/c1ccc(O)cc1)c1ccc(NC(=O)c2ccccc2Br)cc1`, the AC50 [1] is reported as 35.5 µM [falling, single point].
For `O=C(Nc1nc(-c2ccccc2)cs1)c1ccccc1NS(=O)(=O)c1ccc(F)cc1`, the AC50 [1] was 2.91 µM [falling, full curve, poor fit].
With `COc1ccc(C)cc1S(=O)(=O)N(CC(=O)Nc1cccc([N+](=O)[O-])c1)c1ccc(C)c(C)c1` the AC50 [1] was 0.58 µM [falling, full curve, poor fit] and the AC50 [2] was 2.59 µM [rising, partial curve, poor fit].
With `COc1ccc(N)c2c1C(=O)c1ccccc1C2=O` the AC50 [1] was 1.46 µM [falling, partial curve, poor fit].
In the case of `CCCC(=O)Nc1ccc(NC(=O)c2cccc(OC)c2)nc1`, the AC50 [1] is reported as 12.6 µM [falling, partial curve, poor fit].
With `Cc1ccc(N2CCN(CC3CC=CCC3)CC2)cc1` (configuration not stated) the AC50 [1] was 35.5 µM [rising, single point].
In the case of `O=C(/C=C/c1ccccc1Cl)Nc1ccc2c(c1)C(=O)NC2=O`, the AC50 [1] is reported as 0.316 µM [falling, full curve].
For `NS(=O)(=O)c1ccc(NC(=O)COC(=O)c2cn(-c3ccccc3)nc2-c2ccc(F)cc2)cc1`, the AC50 [1] was 18.4 µM [rising, single point].
In the case of `COCCC(=O)N1CCC(Oc2ccc(C(=O)N3CCC(N(C)C)C3)cc2)CC1` (configuration not stated), the AC50 [1] is reported as 6.31 µM [falling, single point].
For `O=C(/C=C/c1ccccc1)NC(=S)Nc1ncccn1`, the AC50 [1] was 17.8 µM [falling, single point].
For `O=C(CNC(=O)c1ccc(F)cc1)N/N=C/c1cc(Br)ccc1OCc1ccccc1`, the AC50 [1] was 4.11 µM [rising, full curve, poor fit].
For `Cc1ccc(NC(=O)CSCC(=O)Nc2cc(C(F)(F)F)ccc2N2CCOCC2)cc1`, the AC50 [1] was 11.6 µM [falling, partial curve, poor fit].
For `O=C(CNCc1ccccc1)Nc1ccc(Oc2ccccc2)cc1`, the AC50 [1] was 15.8 µM [rising, partial curve] and the AC50 [2] was 12.6 µM [falling, partial curve].
In the case of `CC(=O)Nc1ccc(SC[C@H](c2ccccc2)N2CCN(CCc3ccccc3)CCC2=O)cc1`, the AC50 [1] is reported as 0.282 µM [rising, full curve, poor fit].
With `O=C(NC(C(=O)O)c1ccccc1)c1ccccc1` (configuration not stated) the AC50 [1] was 1.64 µM [rising, partial curve, poor fit].
With `O=C(NNc1nc2ccccc2s1)c1ccccc1F` the AC50 [1] was 35.5 µM [falling, single point].
For `CN(C)c1ccc(NC(=O)c2sc(SCC(=O)Nc3nccs3)nc2N)cc1`, the AC50 [1] was 5.8 µM [falling, partial curve, poor fit].
With `CC(C)(Oc1ccc(Cl)cc1)C(=O)NC1=NN(c2ccccc2)C(=O)C1` the AC50 [1] was 32.6 µM [falling, single point] and the AC50 [2] was 23.1 µM [rising, partial curve, poor fit].
For `CC(=O)c1c(C)oc2ccc(NS(=O)(=O)c3ccc(F)cc3C)cc12`, the AC50 [1] was 35.5 µM [falling, single point].
In the case of `CCOc1ccc2c(c1)S/C(=C\c1cccs1)C(=O)N2`, the AC50 [1] is reported as 7.08 µM [rising, partial curve, poor fit].
For `O=C(CSCc1ccccc1Cl)N1CCN(c2ccc(F)cc2)CC1`, the AC50 [1] was 0.0891 µM [rising, full curve, poor fit].
With `CC(=O)c1cccc(NC(=O)Nc2c(C)nn(C)c2C)c1` the AC50 [1] was 32.6 µM [falling, single point].
With `Cc1cccc(CSc2ncnc3c2cnn3Cc2ccccc2)c1` the AC50 [1] was 14.6 µM [rising, single point].
With `O=C(NCC1CCCN1S(=O)(=O)c1ccccc1)C(=O)NC1CC1` (configuration not stated) the AC50 [1] was 25.9 µM [rising, single point].
For `CCn1c(=NC(=O)c2cccc(N3C(=O)CCC3=O)c2)sc2c(OC)ccc(OC)c21`, the AC50 [1] was 11.2 µM [falling, single point].
For `O=C(Nc1cc(Br)ccc1O)C1CC(c2c(F)cccc2Cl)=NO1` (configuration not stated), the AC50 [2] was 0.501 µM [rising, full curve, poor fit].
With `Cc1cc(C)c(S(=O)(=O)N2CCN(C(=O)c3c(C)noc3C)CC2)c(C)c1` the AC50 [1] was 6.51 µM [rising, single point].
With `C/C(=N/NC(=O)c1ccc(NC(=O)c2ccc(F)cc2)cc1)c1ccccc1` the AC50 [1] was 17.8 µM [falling, single point].
For `COCCCNC(=O)CN1C(=O)/C(=C\c2ccc(C)cc2)Sc2ccccc21`, the AC50 [1] was 18.4 µM [rising, partial curve, poor fit].
With `COc1ccc(N=C2NC(=O)/C(=C/c3ccco3)S2)cc1` the AC50 [1] was 35.5 µM [falling, partial curve, poor fit].
In the case of `CCCC(=O)Nc1ccc(N2CCCCC2)cc1`, the AC50 [1] is reported as 32.6 µM [falling, single point].
In the case of `COc1ccc(-c2cc3cc(F)ccc3cn2)cc1`, the AC50 [1] is reported as 0.082 µM [rising, full curve].
In the case of `c1ccc(-c2ccc(-n3ccnc3)cc2)cc1`, the AC50 [1] is reported as 0.251 µM [rising, full curve, poor fit].
With `CCN(CC)S(=O)(=O)c1ccc2oc(C(=O)NCC3COc4ccccc4O3)c(C)c2c1` (configuration not stated) the AC50 [1] was 6.51 µM [falling, single point].
In the case of `CCOC(=O)c1cnc2ccc(C)cc2c1Sc1ccc(F)cc1`, the AC50 [1] is reported as 22.4 µM [falling, single point].
In the case of `COc1ccc(C2=C(C=Nc3c(C)n(C)n(-c4ccccc4)c3=O)C(c3ccccc3C)c3ccccc3O2)cc1OC` (configuration not stated), the AC50 [1] is reported as 0.731 µM [rising, full curve, poor fit].
With `O=C(c1cc(-c2ccccc2)on1)N1CCCc2ccccc21` the AC50 [1] was 3.98 µM [rising, partial curve].
For `Cc1ccc(C(=O)NC(C)CCc2ccccc2)cc1S(=O)(=O)N1CCOCC1` (configuration not stated), the AC50 [1] was 0.58 µM [rising, full curve, poor fit].
In the case of `O=C(COC(=O)CCN=C1NS(=O)(=O)c2ccccc21)NNC(=O)c1ccccc1`, the AC50 [1] is reported as 29.1 µM [falling, single point].
In the case of `Cc1ccc(Nc2nc(-c3sc(NC(=O)c4ccco4)nc3C)cs2)cc1`, the AC50 [1] is reported as 18.4 µM [falling, single point].
With `O=C(c1ccco1)N1CCN(Cc2nc3ccc([N+](=O)[O-])cc3c(=O)n2-c2ccccc2F)CC1` the AC50 [1] was 14.6 µM [rising, partial curve, poor fit].
For `CC(C)(C)C1CCC(=NNc2nc3ccccc3[nH]2)CC1` (configuration not stated), the AC50 [1] was 22.4 µM [falling, single point].
In the case of `CCc1ccccc1N=C1S/C(=C/c2ccccc2OCC(=O)N2CCOCC2)C(=O)N1C`, the AC50 [1] is reported as 7.31 µM [falling, partial curve, poor fit].
With `Cc1cc2nnc(SCC(=O)N3CCCCC3)n2c(N)n1` the AC50 [2] was 8.91 µM [rising, partial curve, poor fit].
With `CCOC(=O)c1sc(NC(=O)Nc2ccc(Cl)cc2)nc1C` the AC50 [1] was 3.55 µM [rising, single point].
For `O=C(NNC(=O)c1ccccc1OCc1ccccc1)c1ccccc1F`, the AC50 [1] was 12.6 µM [falling, single point].
In the case of `C=CCNC(=O)c1cccc2c1C(=O)c1ccc(N3CCOCC3)cc1S2(=O)=O`, the AC50 [1] is reported as 20.6 µM [falling, single point].
